Source: paper PMC10944485, “Structure of full-length ERGIC-53 in complex with MCFD2 for cargo transport” (Nature Communications, 2024)

Protein sequences, listed by entry. Tags and fused reporters are not part of them. Lines headed by an entry give the natural chain unless they say otherwise; changes in a name come on top.
UniProt P49257: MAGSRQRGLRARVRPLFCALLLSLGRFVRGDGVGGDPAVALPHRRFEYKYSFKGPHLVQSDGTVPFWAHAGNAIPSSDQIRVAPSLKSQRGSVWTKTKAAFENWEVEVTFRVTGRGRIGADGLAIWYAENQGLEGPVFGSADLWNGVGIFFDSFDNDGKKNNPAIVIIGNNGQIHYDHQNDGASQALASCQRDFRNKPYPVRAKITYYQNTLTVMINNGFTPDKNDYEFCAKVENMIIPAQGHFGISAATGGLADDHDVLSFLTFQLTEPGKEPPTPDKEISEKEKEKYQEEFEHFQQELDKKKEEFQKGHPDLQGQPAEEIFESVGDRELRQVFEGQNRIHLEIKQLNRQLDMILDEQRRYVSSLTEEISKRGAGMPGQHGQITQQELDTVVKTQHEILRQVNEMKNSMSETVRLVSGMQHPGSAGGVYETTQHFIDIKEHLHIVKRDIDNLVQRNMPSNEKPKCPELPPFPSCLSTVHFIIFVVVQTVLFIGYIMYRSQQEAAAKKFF

Target: ERGIC-53 ΔH34 mutant with a C-terminal FLAG (human) (UniProt P49257)
Assay: cryo-EM structure; ERGIC-53 ΔH34-MCFD2 complex, 1.7 mg/ml; both purified

B1: human MCFD2 lumen domain (residues 27-146) (domain or fragment, UniProt Q8NI22 27-146, looked up)
chain: EEPAASFSQPGSMGLDKNTVHDQEHIMEHLEGVINKPEAEMSPQELQLHYFKMHDYDGNNLLDGLELSTAITHVHKEEGSEQAPLMSEDELINIIDGVLRDDDKNNDGYIDYAEFAKSLQ
notes: MCFD2, human, lumen domain, residues 27-146, in pET15b; Thrombin cleavage of the pET15b His tag probably leaves a few vector residues at the N-terminus (surmised); also called multiple coagulation factor deficiency 2; source: E. coli BL21 (DE3), purified (Ni-NTA, MonoQ, thrombin cleavage, SEC); not shown: His tag, N-terminal, cleaved
- binding: binds

These are yes or no findings as the source states them, for the method shown. A result given as binding can be weak or reduced; the word gives no strength.
